Results published in PubChem BioAssay AID652054 (National Center for Advancing Translational Sciences (NCATS), 2013).
Where “and” joins values, the source holds several entries; their conditions need not be identical. Equal entries are not always repeated. Out of some 360,000 compounds screened, about 9,100 (2.5%) were called active. The inconclusive results got no clear call from the source; some entries with a clear call stand among them for comparison. No stated cut-off is given here; in the data, active means max response below about -50%; inconclusive means no clear call, values can overlap the other calls; inactive means above that.

Chains of the proteins cited; added tags and fusions are not shown.
UniProt P35462, whole entry, looked up: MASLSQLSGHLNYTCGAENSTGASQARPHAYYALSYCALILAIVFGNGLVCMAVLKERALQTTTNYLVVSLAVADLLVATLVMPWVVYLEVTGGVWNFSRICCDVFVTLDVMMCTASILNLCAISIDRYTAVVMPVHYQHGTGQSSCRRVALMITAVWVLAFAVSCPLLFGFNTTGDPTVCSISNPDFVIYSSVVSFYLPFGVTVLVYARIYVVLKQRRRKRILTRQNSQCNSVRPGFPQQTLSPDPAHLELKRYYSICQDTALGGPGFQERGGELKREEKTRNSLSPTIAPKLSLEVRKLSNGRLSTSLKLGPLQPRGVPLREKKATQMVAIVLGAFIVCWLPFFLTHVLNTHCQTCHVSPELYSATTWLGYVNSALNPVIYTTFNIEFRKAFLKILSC

target: D(3) dopamine receptor (Homo sapiens) (UniProt P35462); experiment: qHTS of D3 Dopamine Receptor Antagonist: qHTS; conditions: D3R cells, DiscoveRx beta-arrestin luminescence, antagonist mode; stronger effect = lower value
In short: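 Cells expressing the human receptor were seeded at 1500 cells/well, incubated overnight at 37 degrees C in 5% CO2, then exposed to library compounds with dopamine controls for 90 minutes at 37 degrees C before luminescent detection.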
On the % scale 0 is the no-effect control and ±100 the full control effect.

Compound | max response, negative = inhibition
COc1cc(C(=O)N2CCCCCCC2)ccc1OC1CCN(C(C)=O)CC1 | inactive: 3.11%
N#C/C=C(/N)N1CCN(c2ccc(Cl)c(Cl)c2)CC1 | inactive: 28%
Cc1cccc(NC(=S)NCCc2c[nH]c3ccccc23)c1 | inconclusive: -32.8%
O=C(CCN1CCN(c2ccccc2)CC1)NNC(=O)c1ccccc1 | active: -53.6%
O=C1c2ccccc2COc2ccc(O)cc21 | inconclusive: -36.5%
CCOC(=O)C1=NN(C(=O)c2ccccc2)C(O)(c2ccc(C)cc2)C1 (stereo unspecified) | inconclusive: -45.6%
COc1ccc(CNC(=O)Nc2cccc(C)c2)cc1 | inactive: 11.2%
CCN(CC)c1ncnc2scc(C3COc4ccccc4O3)c12 (stereo unspecified) | inconclusive: -42.7%
CC(C)(c1ccc(O)cc1)c1ccc(O)c(C(=O)O)c1 | inactive: -6.8%
C#Cc1ccc(CN2CCN(Cc3ccsc3)C(CCO)C2)cc1 (stereo unspecified) | inconclusive: -46.4%
COc1cc(NC(=O)CCN2CCN(c3ccccc3OC)CC2)cc(OC)c1 | active: -99.2%
CCOc1ccc(CSCCNC(=S)Nc2ccc(OC)cc2)cc1 | inconclusive: -30.3%
N#C/C(=C/c1ccc(N2CCOCC2)o1)C(=O)N1CCOCC1 | inconclusive: -49.6%
O=C(C#Cc1ccccc1)c1ccco1 | active: -99.6%
CC(NC(=O)COC(=O)c1cc(NS(=O)(=O)c2ccc(Cl)c([N+](=O)[O-])c2)ccc1O)C1CC2CCC1C2 (stereo unspecified) | active: -60.9%
Cc1ccc(CN2CCN(C(=O)C3CCC3)CC2)cc1 | inconclusive: -30.8%
O=C(NC(C(=O)O)c1ccccc1)c1ccc(S(=O)(=O)N2CCOCC2)cc1 (stereo unspecified) | inconclusive: -34.4%
CCN(CC)S(=O)(=O)c1ccc2oc(C(=O)NC3CCCc4ccccc43)c(C)c2c1 (stereo unspecified) | inconclusive: -34.7%
CCC(C)NC(=O)c1c(N)n(/N=C/c2ccccn2)c2nc3ccccc3nc12 (stereo unspecified) | inactive: 8.21%

Compound | max response, negative = inhibition
Cc1ccc(C)c(S(=O)(=O)/N=C2\C=C(NS(=O)(=O)c3ccccc3)C(=O)c3ccccc32)c1 | inconclusive: -36.4%
CCOC(=O)c1c(/N=C/c2ccc(C)cc2O)sc2c1CCN(C)C2 | inconclusive: -47.8%
CCc1nc2c(OCc3ccc(F)cc3)cccn2c1N(C)C(=O)c1ccc(C)cc1 | inconclusive: -31%
Cc1nn(CCC(=O)O)c2nc(-c3cccnc3)cc(C(F)(F)F)c12 | inconclusive: -44.4%
O=C(NC1CCCC1)C(C1CC1)n1c(C2CCCC2)nc2ccccc21 (stereo unspecified) | inconclusive: -34.1%
Cc1cc(C(C)(C)C)ccc1OCCn1ccnc1 | active: -63.6%
CC(C)(C)c1nc(SCC(=O)Nc2ccc3c(c2)OCCO3)c2ccccc2n1 | inconclusive: -39.2%
Cn1cnnc1Sc1nc2ccccc2nc1NS(=O)(=O)c1ccccc1 | inconclusive: -42.4%
O=C(NCc1ccc2c(c1)OCO2)C1CCC(CNS(=O)(=O)c2cccc3nsnc23)CC1 (stereo unspecified) | inactive: -7.25%
CCC(=O)N1N=C(c2ccc(C)o2)CC1c1ccc(OC)cc1 (stereo unspecified) | inactive: -3.41%
Cc1ccccc1/C=N/n1c(-c2cc(-c3ccccc3)n[nH]2)n[nH]c1=S | inconclusive: -47.4%
CNc1n[nH]c(-c2ccccc2)n1 | inactive: 7.69%
Cc1occc1C(=O)NC1CCCN(Cc2ccc(CC(C)C)cc2)C1 (stereo unspecified) | inconclusive: -30.5%
COc1ccc(OC)c(S(=O)(=O)N2CCC(C(=O)N3CCN(Cc4ccccc4)CC3)CC2)c1 | inconclusive: -43.5%
O=C1C=CC(=O)N1 | active: -82.6%
Cc1cc(C(=O)c2ccccc2)c(NC(=O)CCl)s1 | inactive: 3.84%
CN1CCc2c(sc(NC(=O)c3ccco3)c2C(N)=O)C1 | inconclusive: -30.1%
CCCC(=O)NC(=S)Nc1ccc(S(=O)(=O)N2CCc3ccccc32)cc1 | inconclusive: -49.3%
CCCS(=O)(=O)NC(=O)C1(C)CCN1C(=O)Cc1ccc(-c2ccccc2)cc1 (stereo unspecified) | inconclusive: -35.7%

Compound | max response, negative = inhibition
COc1ccc([N+](=O)[O-])cc1NC(=O)CSCc1ccc(Br)cc1 | inconclusive: -33.2%
COc1ccc(CN2C3CCCC2CC(NC(=O)Nc2ccccc2C)C3)cc1 (stereo unspecified) | active: -91.9%
c1cnc(N2CCN(Cc3ccc4c(c3)OCO4)CC2)nc1 | inconclusive: -37.5% and inconclusive: -42.4%
CC1(C(=O)NS(=O)(=O)c2cccc(F)c2)CCN1C(=O)Cc1cc(F)ccc1F (stereo unspecified) | inconclusive: -31.8%
CCOC(=O)C(=O)N=Nc1c(O)[nH]c2ccccc12 | inactive: -16.7%
COc1ccc(Cl)cc1NC(=O)Cn1nnc(C(=O)NCc2ccc3c(c2)OCO3)c1N | inconclusive: -42.4%
CN1CCN(c2ncnc3sc(-c4ccccc4)cc23)CC1 | inconclusive: -30.7%
COc1ccc(C2=Cc3ccccc3C(CC(=O)C3CC3)N2c2ccc(C#CCCO)cc2)cc1 (stereo unspecified) | inconclusive: -36.4%
COc1ccc(C=O)c(-c2c(CCO)sc3ccccc23)c1 | inactive: 7.46%
Cc1sc2nc(CSc3nnnn3-c3ccc(Cl)cc3)[nH]c(=O)c2c1C | inactive: -9.28%
CCC(C(=O)N1CCc2ccccc2C1)n1nc(C)n2c(cc3occc32)c1=O (stereo unspecified) | inconclusive: -45.1%
O=[N+]([O-])c1ccc(/C=N/Nc2ncccc2[N+](=O)[O-])s1 | inactive: -20.7%
CN1CCN(C(=O)C2=C[C@H](c3ccc4c(c3)OCO4)C[C@H](OCc3ccc(CO)cc3)O2)CC1 | inconclusive: -32.3%
O=C(CSc1cccc(C(F)(F)F)c1)N1CCN(S(=O)(=O)c2ccccc2)CC1 | inconclusive: -30.3%
CC(C)C[C@H](N)c1nnc(S(=O)(=O)Cc2cccc(F)c2)o1 | inconclusive: -46.3%
CSc1ccc(/C=C(\C(=O)O)c2ccc(S(=O)(=O)N3CCCCC3)s2)cc1 | inconclusive: -34.6%
Cc1cc(NC(=O)CSc2nc(-c3cccs3)nc3ccccc23)no1 | inactive: 4.16%
CCCOc1ccc(/C(O)=C2/C(=O)C(=O)N(c3cc(C)on3)C2c2ccc(C(=O)OC)cc2)cc1 (stereo unspecified) | inconclusive: -42%

Part of the list above, set out differently:
Cc1cccc(NC(=S)NCCc2c[nH]c3ccccc23)c1
  max response, negative = inhibition: inconclusive: -32.8%
Cn1cnnc1Sc1nc2ccccc2nc1NS(=O)(=O)c1ccccc1
  max response, negative = inhibition: inconclusive: -42.4%
CN1CCc2c(sc(NC(=O)c3ccco3)c2C(N)=O)C1
  max response, negative = inhibition: inconclusive: -30.1%
